Values from PubChem BioAssay AID1259254 (NCATS, 2017).
The whole screen tested about 59,000 reagents; this is an unselected part. Over the whole deposit, about 1,550 (2.6%) are marked active. 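G2 share is only a proxy for re-replication; each gene was hit by three separate siRNAs, and active genes were retested.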 The raw values are shown without normalisation. Reagents against one gene are numbered here. No sequences are given here. The record does not give: the amount of reagent.

Aim: 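Finding genes that stop cells copying their DNA twice in one cycle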 (primary screen)
System: human HCT116 colorectal cancer cells
Reagents: single siRNA against human genes
Duration: 3 days
Measurement: 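Nuclei stained with Hoechst and imaged; cell-cycle phase assigned by DNA content; G2 share scaled per plate, non-targeting siRNA 0%, GMNN siRNA 100%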
Reading the numbers: G2 robust z-score and G2 cells, % of GMNN control: higher = more G2 cells, more excess DNA replication; raw share of cells in G2: higher = larger share of cells with G2 DNA content
Hit rule: 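Active siRNAs have a G2 robust z of 5 or more median absolute deviations over the median, which in these data means about 38% or higher of GMNN control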

| gene knocked down | reagent no. | G2 robust z-score | G2 cells, % of GMNN control | raw share of cells in G2 (%) | call |
| --- | --- | --- | --- | --- | --- |
| LTK (leukocyte receptor tyrosine kinase) | 1 | -1.76 | -9.42 | 2.49 | inactive |
| LTK (leukocyte receptor tyrosine kinase) | 2 | 0.948 | 9.63 | 8.66 | inactive |
| LTK (leukocyte receptor tyrosine kinase) | 3 | -0.75 | -2.31 | 3.21 | inactive |
| ADGRB1 (adhesion G protein-coupled receptor B1) | 1 | 5.86 | 44.2 | 21.6 | active |
| ADGRB1 (adhesion G protein-coupled receptor B1) | 2 | 2.26 | 18.9 | 11.1 | inactive |
| ADGRB1 (adhesion G protein-coupled receptor B1) | 3 | 4.29 | 33.1 | 13.4 | inactive |
| OR2L2 (olfactory receptor family 2 subfamily L member 2) | 1 | 3.51 | 27.7 | 14.8 | inactive |
| OR2L2 (olfactory receptor family 2 subfamily L member 2) | 2 | -0.132 | 2.04 | 4.82 | inactive |
| OR2L2 (olfactory receptor family 2 subfamily L member 2) | 3 | -0.269 | 1.08 | 3.68 | inactive |
| C14orf119 (chromosome 14 open reading frame 119) | 1 | -0.516 | -0.666 | 4.27 | inactive |
| C14orf119 (chromosome 14 open reading frame 119) | 2 | 2.17 | 18.2 | 11.7 | inactive |
| C14orf119 (chromosome 14 open reading frame 119) | 3 | 1.08 | 10.6 | 6.52 | inactive |
| LINC01547 (long independently transcribed non-coding RNA 1547) | 1 | -0.709 | -2.02 | 1.79 | inactive |
| LINC01547 (long independently transcribed non-coding RNA 1547) | 2 | -0.424 | -0.0157 | 4.1 | inactive |
| LINC01547 (long independently transcribed non-coding RNA 1547) | 3 | 0.496 | 6.46 | 5.37 | inactive |
| LINC01547 (long independently transcribed non-coding RNA 1547) | 4 | -0.521 | -0.698 | 3.88 | inactive |
| LINC01547 (long independently transcribed non-coding RNA 1547) | 5 | 0.0938 | 3.63 | 4.53 | inactive |
| LINC01547 (long independently transcribed non-coding RNA 1547) | 6 | 0.065 | 3.43 | 3.44 | inactive |
| TTLL8 (tubulin tyrosine ligase like 8) | 1 | -0.404 | 0.124 | 2.8 | inactive |
| TTLL8 (tubulin tyrosine ligase like 8) | 2 | -0.801 | -2.67 | 2.65 | inactive |
| TTLL8 (tubulin tyrosine ligase like 8) | 3 | -0.106 | 2.22 | 3.7 | inactive |
| TAF6 (TATA-box binding protein associated factor 6) | 1 | 0.681 | 7.76 | 6.54 | inactive |
| TAF6 (TATA-box binding protein associated factor 6) | 2 | 3.18 | 25.4 | 16.7 | inactive |
| TAF6 (TATA-box binding protein associated factor 6) | 3 | 1.09 | 10.6 | 6.97 | inactive |
| CXCL12 (C-X-C motif chemokine ligand 12) | 1 | 0.1 | 3.67 | 6.54 | inactive |
| CXCL12 (C-X-C motif chemokine ligand 12) | 2 | -0.976 | -3.9 | 2.68 | inactive |
| CXCL12 (C-X-C motif chemokine ligand 12) | 3 | 0.835 | 8.84 | 6.55 | inactive |
| CDS2 (CDP-diacylglycerol synthase 2) | 1 | -0.928 | -3.56 | 4.01 | inactive |
| CDS2 (CDP-diacylglycerol synthase 2) | 2 | -0.774 | -2.48 | 3.41 | inactive |
| CDS2 (CDP-diacylglycerol synthase 2) | 3 | -0.717 | -2.08 | 3.96 | inactive |
| SCUBE2 (signal peptide, CUB domain and EGF like domain containing 2) | 1 | -1.28 | -6.02 | 3.19 | inactive |
| SCUBE2 (signal peptide, CUB domain and EGF like domain containing 2) | 2 | -0.409 | 0.0932 | 2.82 | inactive |
| SCUBE2 (signal peptide, CUB domain and EGF like domain containing 2) | 3 | 4.38 | 33.8 | 14.2 | inactive |
| ZNF195 (zinc finger protein 195) | 1 | -0.419 | 0.0193 | 3.53 | inactive |
| ZNF195 (zinc finger protein 195) | 2 | 0.988 | 9.92 | 10.4 | inactive |
| ZNF195 (zinc finger protein 195) | 3 | 1.67 | 14.7 | 9.51 | inactive |
| OLMALINC | 1 | -0.669 | -1.74 | 2.46 | inactive |
| OLMALINC | 2 | 1.57 | 14 | 7.37 | inactive |
| OLMALINC | 3 | 0.317 | 5.19 | 6.29 | inactive |
| SKOR1 (SKI family transcriptional corepressor 1) | 1 | 0.431 | 6 | 5.25 | inactive |
| SKOR1 (SKI family transcriptional corepressor 1) | 2 | 3.51 | 27.7 | 12.6 | inactive |
| SKOR1 (SKI family transcriptional corepressor 1) | 3 | 2.02 | 17.2 | 9.54 | inactive |
| LAG3 (lymphocyte activating 3) | 1 | -0.294 | 0.898 | 5.35 | inactive |
| LAG3 (lymphocyte activating 3) | 2 | 0.247 | 4.71 | 6.08 | inactive |
| LAG3 (lymphocyte activating 3) | 3 | -0.775 | -2.49 | 2.46 | inactive |
| TACR1 (tachykinin receptor 1) | 1 | 0.346 | 5.4 | 7.77 | inactive |
| TACR1 (tachykinin receptor 1) | 2 | 1.48 | 13.4 | 9.19 | inactive |
| TACR1 (tachykinin receptor 1) | 3 | 2.48 | 20.4 | 9.53 | inactive |
| TRA2A (transformer 2 alpha homolog) | 1 | 10.3 | 75.2 | 29.1 | active |
| TRA2A (transformer 2 alpha homolog) | 2 | 0.0984 | 3.66 | 7.82 | inactive |
| TRA2A (transformer 2 alpha homolog) | 3 | 0.679 | 7.75 | 6.53 | inactive |
| POLR2B (RNA polymerase II subunit B) | 1 | 2.02 | 17.2 | 9.86 | inactive |
| POLR2B (RNA polymerase II subunit B) | 2 | 3.09 | 24.7 | 13.5 | inactive |
| POLR2B (RNA polymerase II subunit B) | 3 | 2.15 | 18.1 | 11.6 | inactive |
| MIR7-3HG (MIR7-3 host gene) | 1 | -0.573 | -1.06 | 3.25 | inactive |
| MIR7-3HG (MIR7-3 host gene) | 2 | -0.439 | -0.119 | 3 | inactive |
| MIR7-3HG (MIR7-3 host gene) | 3 | -0.791 | -2.6 | 2.48 | inactive |
| YTHDC1 (YTH N6-methyladenosine RNA binding protein C1) | 1 | 0.627 | 7.38 | 7.22 | inactive |
| YTHDC1 (YTH N6-methyladenosine RNA binding protein C1) | 2 | 2.95 | 23.7 | 10.4 | inactive |
| YTHDC1 (YTH N6-methyladenosine RNA binding protein C1) | 3 | 0.249 | 4.72 | 4.42 | inactive |
| SNHG32 (small nucleolar RNA host gene 32) | 1 | -0.649 | -1.6 | 2.75 | inactive |
| SNHG32 (small nucleolar RNA host gene 32) | 2 | 1.07 | 10.5 | 7.86 | inactive |
| SNHG32 (small nucleolar RNA host gene 32) | 3 | 1.38 | 12.7 | 9.35 | inactive |
| EXT1 (exostosin glycosyltransferase 1) | 1 | -0.938 | -3.63 | 3.88 | inactive |
| EXT1 (exostosin glycosyltransferase 1) | 2 | -0.194 | 1.61 | 4.23 | inactive |
| EXT1 (exostosin glycosyltransferase 1) | 3 | -0.804 | -2.69 | 4.26 | inactive |
| TRIP13 (thyroid hormone receptor interactor 13) | 1 | -0.21 | 1.49 | 5.24 | inactive |
| TRIP13 (thyroid hormone receptor interactor 13) | 2 | 0.696 | 7.87 | 8.03 | inactive |
| TRIP13 (thyroid hormone receptor interactor 13) | 3 | -0.451 | -0.205 | 4.44 | inactive |
| TMEM150C (transmembrane protein 150C) | 1 | 6.67 | 49.9 | 22.9 | active |
| TMEM150C (transmembrane protein 150C) | 2 | 0.657 | 7.59 | 6.3 | inactive |
| TMEM150C (transmembrane protein 150C) | 3 | 0.244 | 4.69 | 4.71 | inactive |
| IQANK1 (IQ motif and ankyrin repeat containing 1) | 1 | 3.08 | 24.6 | 13.1 | inactive |
| IQANK1 (IQ motif and ankyrin repeat containing 1) | 2 | -0.795 | -2.63 | 2.42 | inactive |
| IQANK1 (IQ motif and ankyrin repeat containing 1) | 3 | -0.182 | 1.69 | 3.69 | inactive |
| HOOK1 (hook microtubule tethering protein 1) | 1 | -0.748 | -2.29 | 4.87 | inactive |
| HOOK1 (hook microtubule tethering protein 1) | 2 | -0.571 | -1.05 | 2.42 | inactive |
| HOOK1 (hook microtubule tethering protein 1) | 3 | -0.895 | -3.33 | 2.59 | inactive |
| CALM3 (calmodulin 3) | 1 | -0.675 | -1.79 | 3.4 | inactive |
| CALM3 (calmodulin 3) | 2 | 0.0118 | 3.05 | 6.62 | inactive |
| CALM3 (calmodulin 3) | 3 | -0.682 | -1.83 | 4.79 | inactive |
| ECT2L (epithelial cell transforming 2 like) | 1 | -0.699 | -1.95 | 3.32 | inactive |
| ECT2L (epithelial cell transforming 2 like) | 2 | 0.337 | 5.34 | 5.6 | inactive |
| ECT2L (epithelial cell transforming 2 like) | 3 | -0.132 | 2.04 | 5.01 | inactive |
| BLTP3A (bridge-like lipid transfer protein family member 3A) | 1 | 0.36 | 5.5 | 5.57 | inactive |
| BLTP3A (bridge-like lipid transfer protein family member 3A) | 2 | -0.464 | -0.295 | 4.15 | inactive |
| BLTP3A (bridge-like lipid transfer protein family member 3A) | 3 | -0.242 | 1.26 | 3.61 | inactive |

Records above whose target name begins with O or o:
| gene knocked down | reagent no. | G2 robust z-score | G2 cells, % of GMNN control | raw share of cells in G2 (%) | call |
| --- | --- | --- | --- | --- | --- |
| OR2L2 (olfactory receptor family 2 subfamily L member 2) | 1 | 3.51 | 27.7 | 14.8 | inactive |
| OR2L2 (olfactory receptor family 2 subfamily L member 2) | 2 | -0.132 | 2.04 | 4.82 | inactive |
| OR2L2 (olfactory receptor family 2 subfamily L member 2) | 3 | -0.269 | 1.08 | 3.68 | inactive |
| OLMALINC | 1 | -0.669 | -1.74 | 2.46 | inactive |
| OLMALINC | 2 | 1.57 | 14 | 7.37 | inactive |
| OLMALINC | 3 | 0.317 | 5.19 | 6.29 | inactive |
